Laboratory results: the supplement of paper PMC10849652
This is one part of the list. Residues, ends and D or L forms follow the SMILES beside them. *: point of attachment. Cbz = O=C(OCc1ccccc1)*

Sequences of proteins named here, by UniProt entry; tags and fusion partners are left off. A change or cut given only in a name is not applied to a line headed by its entry.
UniProt Q8IW41: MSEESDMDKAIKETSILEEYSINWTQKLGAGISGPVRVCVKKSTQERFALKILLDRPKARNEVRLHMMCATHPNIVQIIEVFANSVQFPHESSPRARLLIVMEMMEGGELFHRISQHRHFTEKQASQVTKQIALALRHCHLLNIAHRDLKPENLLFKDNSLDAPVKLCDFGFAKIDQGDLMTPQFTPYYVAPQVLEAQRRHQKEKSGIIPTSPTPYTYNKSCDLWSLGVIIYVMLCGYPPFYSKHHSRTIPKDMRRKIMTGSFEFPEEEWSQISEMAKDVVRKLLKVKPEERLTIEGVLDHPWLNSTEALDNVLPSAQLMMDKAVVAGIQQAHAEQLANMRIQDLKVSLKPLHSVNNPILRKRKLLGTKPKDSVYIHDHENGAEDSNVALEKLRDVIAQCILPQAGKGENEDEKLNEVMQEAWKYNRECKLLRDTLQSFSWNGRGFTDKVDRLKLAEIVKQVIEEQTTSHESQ
UniProt Q969L4: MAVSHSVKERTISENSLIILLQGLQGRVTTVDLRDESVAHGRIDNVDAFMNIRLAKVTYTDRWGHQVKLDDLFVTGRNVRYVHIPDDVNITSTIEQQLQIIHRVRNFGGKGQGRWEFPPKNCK
UniProt Q16659, whole entry, looked up: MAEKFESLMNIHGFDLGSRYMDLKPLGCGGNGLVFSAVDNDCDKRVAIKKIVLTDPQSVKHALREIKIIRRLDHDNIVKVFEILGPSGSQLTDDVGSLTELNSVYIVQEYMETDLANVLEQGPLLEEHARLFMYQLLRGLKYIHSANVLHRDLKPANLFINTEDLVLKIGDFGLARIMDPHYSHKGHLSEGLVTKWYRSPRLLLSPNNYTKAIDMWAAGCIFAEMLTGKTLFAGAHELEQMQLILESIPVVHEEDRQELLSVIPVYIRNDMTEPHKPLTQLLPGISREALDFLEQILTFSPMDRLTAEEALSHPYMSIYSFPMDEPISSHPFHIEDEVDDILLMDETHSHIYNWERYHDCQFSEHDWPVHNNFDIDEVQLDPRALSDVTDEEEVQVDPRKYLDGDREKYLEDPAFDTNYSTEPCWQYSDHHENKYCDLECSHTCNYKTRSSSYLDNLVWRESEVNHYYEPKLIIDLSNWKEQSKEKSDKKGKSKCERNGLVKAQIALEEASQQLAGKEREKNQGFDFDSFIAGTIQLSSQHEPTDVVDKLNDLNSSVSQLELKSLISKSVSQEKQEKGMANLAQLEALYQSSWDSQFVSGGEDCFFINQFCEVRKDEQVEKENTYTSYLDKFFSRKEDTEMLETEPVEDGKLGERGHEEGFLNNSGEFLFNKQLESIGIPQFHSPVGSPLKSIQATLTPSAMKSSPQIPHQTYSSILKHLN
UniProt O95819: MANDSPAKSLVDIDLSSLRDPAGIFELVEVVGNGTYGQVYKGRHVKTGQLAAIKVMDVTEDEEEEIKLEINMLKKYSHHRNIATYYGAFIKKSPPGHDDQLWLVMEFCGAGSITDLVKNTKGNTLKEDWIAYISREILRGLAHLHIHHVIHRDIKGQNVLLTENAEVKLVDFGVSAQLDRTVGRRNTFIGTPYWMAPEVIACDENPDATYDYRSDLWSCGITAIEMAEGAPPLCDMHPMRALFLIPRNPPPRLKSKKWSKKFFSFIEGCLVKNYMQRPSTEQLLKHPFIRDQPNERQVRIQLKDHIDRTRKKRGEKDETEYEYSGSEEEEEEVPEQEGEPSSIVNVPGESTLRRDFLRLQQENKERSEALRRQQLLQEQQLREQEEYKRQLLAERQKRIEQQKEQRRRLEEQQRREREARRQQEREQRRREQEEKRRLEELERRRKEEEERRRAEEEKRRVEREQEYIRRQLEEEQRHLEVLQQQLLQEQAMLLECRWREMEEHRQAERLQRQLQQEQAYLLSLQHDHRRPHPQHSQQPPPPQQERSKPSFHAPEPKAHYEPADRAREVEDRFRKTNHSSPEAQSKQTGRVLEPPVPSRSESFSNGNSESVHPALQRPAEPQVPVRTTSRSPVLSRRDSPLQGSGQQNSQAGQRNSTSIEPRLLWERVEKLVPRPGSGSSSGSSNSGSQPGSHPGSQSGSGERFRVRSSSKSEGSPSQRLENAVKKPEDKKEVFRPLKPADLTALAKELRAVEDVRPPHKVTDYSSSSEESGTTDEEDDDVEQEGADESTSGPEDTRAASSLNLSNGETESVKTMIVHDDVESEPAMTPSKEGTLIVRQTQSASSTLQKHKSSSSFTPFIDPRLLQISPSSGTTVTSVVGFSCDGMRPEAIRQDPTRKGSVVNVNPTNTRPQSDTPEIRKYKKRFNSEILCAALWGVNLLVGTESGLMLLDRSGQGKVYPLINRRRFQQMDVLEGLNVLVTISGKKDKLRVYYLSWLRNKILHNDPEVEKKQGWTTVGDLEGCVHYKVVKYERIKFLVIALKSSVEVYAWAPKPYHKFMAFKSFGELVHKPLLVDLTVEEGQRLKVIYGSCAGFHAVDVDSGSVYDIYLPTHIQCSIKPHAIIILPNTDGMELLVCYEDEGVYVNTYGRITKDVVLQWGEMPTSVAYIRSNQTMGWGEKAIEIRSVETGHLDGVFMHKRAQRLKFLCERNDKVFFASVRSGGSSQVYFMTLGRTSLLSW
UniProt O43325: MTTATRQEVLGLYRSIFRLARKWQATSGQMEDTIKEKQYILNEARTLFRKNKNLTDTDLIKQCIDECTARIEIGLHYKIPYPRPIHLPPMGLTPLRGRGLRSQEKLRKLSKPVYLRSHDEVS
UniProt Q9H089: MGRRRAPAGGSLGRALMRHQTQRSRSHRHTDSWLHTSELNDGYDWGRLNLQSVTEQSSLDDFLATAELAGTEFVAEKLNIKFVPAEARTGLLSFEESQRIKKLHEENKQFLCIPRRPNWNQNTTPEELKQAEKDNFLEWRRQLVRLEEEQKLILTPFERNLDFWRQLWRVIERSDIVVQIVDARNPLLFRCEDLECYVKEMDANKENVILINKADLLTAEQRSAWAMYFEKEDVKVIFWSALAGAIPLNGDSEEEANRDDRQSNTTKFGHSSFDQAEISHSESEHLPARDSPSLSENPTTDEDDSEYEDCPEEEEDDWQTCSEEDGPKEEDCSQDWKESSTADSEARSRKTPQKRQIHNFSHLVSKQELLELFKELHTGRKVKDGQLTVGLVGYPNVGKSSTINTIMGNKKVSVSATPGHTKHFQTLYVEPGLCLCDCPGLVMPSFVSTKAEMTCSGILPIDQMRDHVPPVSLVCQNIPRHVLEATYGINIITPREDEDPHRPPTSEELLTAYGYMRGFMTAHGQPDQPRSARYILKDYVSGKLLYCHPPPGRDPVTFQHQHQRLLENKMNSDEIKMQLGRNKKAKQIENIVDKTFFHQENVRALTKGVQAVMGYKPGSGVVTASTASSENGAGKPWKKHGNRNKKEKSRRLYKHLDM
UniProt Q9H063: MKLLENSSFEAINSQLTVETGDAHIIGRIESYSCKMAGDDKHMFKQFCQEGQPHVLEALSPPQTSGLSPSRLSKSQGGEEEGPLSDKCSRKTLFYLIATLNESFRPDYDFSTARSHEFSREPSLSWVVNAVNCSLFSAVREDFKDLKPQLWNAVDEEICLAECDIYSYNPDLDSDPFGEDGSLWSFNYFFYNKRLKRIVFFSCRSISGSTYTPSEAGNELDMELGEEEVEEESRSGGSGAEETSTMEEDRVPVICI
UniProt Q9Y5V3: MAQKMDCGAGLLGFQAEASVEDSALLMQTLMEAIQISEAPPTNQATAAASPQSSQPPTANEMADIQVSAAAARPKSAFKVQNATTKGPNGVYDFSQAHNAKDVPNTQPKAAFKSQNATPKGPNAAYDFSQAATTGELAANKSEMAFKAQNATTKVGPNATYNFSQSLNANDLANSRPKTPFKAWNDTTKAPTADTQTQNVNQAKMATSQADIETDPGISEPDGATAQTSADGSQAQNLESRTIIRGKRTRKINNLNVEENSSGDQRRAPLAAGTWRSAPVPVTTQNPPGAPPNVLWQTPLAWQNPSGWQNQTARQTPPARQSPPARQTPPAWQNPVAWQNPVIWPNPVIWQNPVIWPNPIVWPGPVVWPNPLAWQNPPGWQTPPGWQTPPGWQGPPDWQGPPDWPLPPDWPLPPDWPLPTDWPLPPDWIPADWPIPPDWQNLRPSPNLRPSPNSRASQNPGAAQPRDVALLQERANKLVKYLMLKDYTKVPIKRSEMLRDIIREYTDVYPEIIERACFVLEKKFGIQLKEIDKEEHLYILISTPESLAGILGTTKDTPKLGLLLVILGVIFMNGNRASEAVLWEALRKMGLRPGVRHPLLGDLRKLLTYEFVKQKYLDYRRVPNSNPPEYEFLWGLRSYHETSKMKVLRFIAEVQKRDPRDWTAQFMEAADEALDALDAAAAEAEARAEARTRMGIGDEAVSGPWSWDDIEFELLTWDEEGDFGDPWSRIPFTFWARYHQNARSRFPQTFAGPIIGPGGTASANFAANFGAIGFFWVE
UniProt Q96LZ2: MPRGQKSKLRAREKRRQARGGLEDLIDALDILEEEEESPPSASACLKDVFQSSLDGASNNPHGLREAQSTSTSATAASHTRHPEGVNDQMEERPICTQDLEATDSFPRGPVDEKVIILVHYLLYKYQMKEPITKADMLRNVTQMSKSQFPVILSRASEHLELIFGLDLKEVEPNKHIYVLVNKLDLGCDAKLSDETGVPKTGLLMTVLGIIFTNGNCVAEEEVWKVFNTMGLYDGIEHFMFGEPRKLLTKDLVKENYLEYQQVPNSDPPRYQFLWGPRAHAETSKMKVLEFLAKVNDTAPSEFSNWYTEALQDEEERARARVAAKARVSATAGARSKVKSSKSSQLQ
UniProt Q14766: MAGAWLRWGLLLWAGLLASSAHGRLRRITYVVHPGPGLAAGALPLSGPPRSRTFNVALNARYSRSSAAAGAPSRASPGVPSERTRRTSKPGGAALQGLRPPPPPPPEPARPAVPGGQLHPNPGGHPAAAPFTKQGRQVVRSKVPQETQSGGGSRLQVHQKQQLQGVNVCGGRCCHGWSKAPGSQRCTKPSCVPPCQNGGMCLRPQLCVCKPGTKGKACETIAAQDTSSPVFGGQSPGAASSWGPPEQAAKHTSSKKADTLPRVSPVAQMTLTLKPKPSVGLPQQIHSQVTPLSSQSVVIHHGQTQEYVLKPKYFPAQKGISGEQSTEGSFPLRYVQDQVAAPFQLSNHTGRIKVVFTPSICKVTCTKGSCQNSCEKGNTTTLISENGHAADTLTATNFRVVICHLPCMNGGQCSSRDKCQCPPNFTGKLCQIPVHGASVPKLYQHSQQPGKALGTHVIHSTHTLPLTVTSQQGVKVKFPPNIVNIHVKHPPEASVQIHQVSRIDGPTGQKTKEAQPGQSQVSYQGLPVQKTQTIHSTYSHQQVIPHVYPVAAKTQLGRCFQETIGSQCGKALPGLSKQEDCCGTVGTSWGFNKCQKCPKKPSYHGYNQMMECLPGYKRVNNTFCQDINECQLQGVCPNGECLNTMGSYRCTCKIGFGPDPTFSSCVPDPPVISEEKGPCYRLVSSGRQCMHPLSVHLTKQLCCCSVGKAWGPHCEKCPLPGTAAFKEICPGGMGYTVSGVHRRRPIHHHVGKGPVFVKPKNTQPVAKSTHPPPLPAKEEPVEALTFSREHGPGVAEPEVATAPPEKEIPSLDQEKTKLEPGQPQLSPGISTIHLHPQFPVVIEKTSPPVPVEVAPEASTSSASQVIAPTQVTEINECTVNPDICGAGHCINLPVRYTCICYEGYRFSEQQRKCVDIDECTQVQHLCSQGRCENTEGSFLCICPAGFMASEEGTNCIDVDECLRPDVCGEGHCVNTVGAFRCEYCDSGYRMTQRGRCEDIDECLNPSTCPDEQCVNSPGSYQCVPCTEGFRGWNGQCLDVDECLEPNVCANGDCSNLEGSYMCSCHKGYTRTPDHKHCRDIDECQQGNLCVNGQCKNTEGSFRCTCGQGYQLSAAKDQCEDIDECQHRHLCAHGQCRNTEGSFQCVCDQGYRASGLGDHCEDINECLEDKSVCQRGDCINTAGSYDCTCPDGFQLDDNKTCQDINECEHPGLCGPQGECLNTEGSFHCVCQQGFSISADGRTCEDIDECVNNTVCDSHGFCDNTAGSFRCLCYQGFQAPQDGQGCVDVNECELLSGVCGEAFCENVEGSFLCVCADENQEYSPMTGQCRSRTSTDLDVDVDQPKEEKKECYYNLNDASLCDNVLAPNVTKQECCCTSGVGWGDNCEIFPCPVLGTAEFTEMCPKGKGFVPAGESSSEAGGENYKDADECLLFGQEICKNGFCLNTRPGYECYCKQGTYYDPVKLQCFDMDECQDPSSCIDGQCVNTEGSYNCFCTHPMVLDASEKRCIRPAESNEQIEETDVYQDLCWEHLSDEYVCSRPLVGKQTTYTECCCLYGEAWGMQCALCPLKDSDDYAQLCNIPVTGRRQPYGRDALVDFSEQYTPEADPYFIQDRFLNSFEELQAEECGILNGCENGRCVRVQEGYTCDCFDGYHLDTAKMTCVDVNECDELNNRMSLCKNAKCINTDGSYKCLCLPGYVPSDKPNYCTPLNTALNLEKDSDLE

How the values were obtained:
Experiment in all cases: log2 fold change, soluble protein after heating vs DMSO (PISA); higher = thermal stabilisation; K562 cells, 10 uM, 30 min; active = over 0.2 and 3.5 SD of the protein, either way, in both replicates (recomputed)
IRAK-1-4 Inhibitor I = compound: C1COCCN1CCN2C3=CC=CC=C3N=C2NC(=O)C4=CC(=CC=C4)[N+](=O)[O-] [IRAK-1-4 Inhibitor I]
Outline: (§1)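 Quantification of soluble protein used TMTpro 16plex LC-MS/MS, with channel sums equalised. Samples were the supernatant after 21,000xg for 90 min of pooled aliquots from K562 cells (2×10^6 cells/mL) treated with 10 μM compound for 30 min, heated for 3 min over 48°C-58°C, and extracted in PBS with 0.5% NP-40 at 4°C. Values, from duplicates, describe thermal stability against control samples on a log2 fold-change scale.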

ibrutinib = compound: C=CC(=O)N1CCC[C@@H](n2nc(-c3ccc(Oc4ccccc4)cc3)c3c(N)ncnc32)C1 [ibrutinib]
Outline: as §1

ralimetinib = compound: CC(C)(C)Cn1c(N)nc2ccc(-c3[nH]c(C(C)(C)C)nc3-c3ccc(F)cc3)nc21 [ralimetinib]
Outline: as §1

[1] = compound: CC(C)(O)CC(=O)NCCn1ccc2ncnc(Nc3ccc(Oc4cccc(C(F)(F)F)c4)c(Cl)c3)c21
Outline: as §1

[2] = compound: CC(C)C1=C2N=C(C=C(N2N=C1)NCC3=CC=CC=C3)NCCCCCCN
Outline: as §1

[3] = compound: CC(C)C[C@@H](C=O)NC(=O)[C@H](CC(C)C)NC(=O)[C@H](CC(C)C)NC(=O)OCc1ccccc1
Outline: as §1

pinometostat = compound: CC(C)N(C[C@H]1O[C@@H](n2cnc3c(N)ncnc32)[C@H](O)[C@@H]1O)[C@H]1C[C@@H](CCc2nc3cc(C(C)(C)C)ccc3[nH]2)C1 [pinometostat]
Outline: as §1

[4] = compound: CC1=C(C(CC(=O)N1)C2=CC=C(C=C2)C(F)(F)F)C(=O)NC3=C(C=C4C(=C3)C=NN4)F
Outline: as §1

[5] = compound: CC1=C(C=C(C=C1)NC(=O)C2=CC(=CC=C2)N(C)C)NC(=O)C3=CC=C(C=C3)O
Outline: as §1

[6] = compound: CC1=CC=C(C=C1)SC2=C3C=C(SC3=CN=C2)C(=O)N
Outline: as §1

[7] = compound: CC1=NC(=CC=C1)C2=C(N=C(N2)C(C)(C)C)C3=CC4=NC=CN=C4C=C3
Outline: as §1

Nexturastat A = compound: CCCCN(Cc1ccc(C(=O)NO)cc1)C(=O)Nc1ccccc1 [Nexturastat A]
Outline: as §1

[8] = compound: CCCS(=O)(=O)Nc1ccc(F)c(C(=O)c2c[nH]c3ncc(Cl)cc23)c1F
Outline: as §1

[9] = compound: CCCc1cc(C)[nH]c(=O)c1CNC(=O)c1cc(-c2ccnc(N3CCN(C)CC3)c2)cc2c1cnn2C(C)C
Outline: as §1

givinostat = compound: CCN(CC)Cc1ccc2cc(COC(=O)Nc3ccc(C(=O)NO)cc3)ccc2c1 [givinostat]
Outline: as §1

barasertib = compound: CCN(CCCOc1ccc2c(Nc3cc(CC(=O)Nc4cccc(F)c4)[nH]n3)ncnc2c1)CCOP(=O)(O)O [barasertib]
Outline: as §1

[10] = compound: CC(=O)c1cnc2ccc(-c3cc(Cl)c(O)c(Cl)c3)nc2c1N[C@H]1CC[C@H](CN(C)C)CC1
Outline: as §1

[11] = compound: CC1=C(C2=C(C=C1)C(=O)C3=CC=CC=C3N2CCCN)C
Outline: as §1

[12] = compound: CC1=C(C=C(C=C1)NC(=O)C2=CC(=CC=C2)C(C)(C)C#N)NC3=CC4=C(C=C3)N=CN(C4=O)C
Outline: as §1

vemurafenib = compound: CCCS(=O)(=O)Nc1ccc(F)c(C(=O)c2c[nH]c3ncc(-c4ccc(Cl)cc4)cc23)c1F [vemurafenib]
Outline: as §1

Target	log2 fold change (IRAK-1-4 Inhibitor I)	log2 fold change (ibrutinib)	log2 fold change (ralimetinib)	log2 fold change [1]	log2 fold change [2]	log2 fold change [3]	log2 fold change (pinometostat)	log2 fold change [4]	log2 fold change [5]	log2 fold change [6]	log2 fold change [7]	log2 fold change (Nexturastat A)	log2 fold change [8]	log2 fold change [9]	log2 fold change (givinostat)	log2 fold change (barasertib)	log2 fold change [10]	log2 fold change [11]	log2 fold change [12]	log2 fold change (vemurafenib)
MAGEA1 (UniProt P43355)	inactive: -0.081	inactive: 0.06	inactive: 0.058	inactive: 0.053	inactive: -0.396	inactive: 0.127	inactive: 0.261	inactive: -0.03	inactive: -0.057	inactive: 0.015	inactive: 0.001	inactive: 0.391	inactive: 0.056	inactive: 0.04	inactive: 0.065	inactive: 0.054	–	–	–	–
MAP3K7 (UniProt O43318)	inactive: -0.123	inactive: -0.061	inactive: 0.035	inactive: -0.207	inactive: -0.159	inactive: 0.05	inactive: 0.102	–	inactive: -0.039	inactive: 0.041	inactive: 0.019	inactive: 0.027	inactive: 0.074	inactive: 0.008	inactive: 0.093	inactive: 0.079	inactive: -0.075	inactive: 0.006	inactive: -0.008	inactive: 0.042
MAPKAPK5 (UniProt Q8IW41)	inactive: 0.029	inactive: -0.003	inactive: 0.029	inactive: -0.139	inactive: 0.218	inactive: 0.055	inactive: -0.042	–	inactive: -0.02	inactive: -0.015	inactive: 0.013	inactive: 0.003	inactive: 0.11	inactive: 0.038	inactive: 0.225	inactive: -0.03	inactive: 0.052	inactive: 0.002	inactive: 0.004	inactive: 0.028
MAP3K20 (UniProt Q9NYL2)	inactive: -0.043	inactive: -0.167	inactive: 0.019	inactive: -0.032	inactive: 0.034	inactive: 0.052	inactive: 0.099	–	inactive: -0.098	inactive: -0.014	inactive: 0.03	inactive: 0.062	inactive: -0.163	inactive: 0.022	inactive: -0.089	inactive: -0.02	active: -0.654	inactive: 0.027	active: -0.448	inactive: -0.254
LSM10 (UniProt Q969L4)	inactive: -0.039	inactive: -0.144	–	–	inactive: -0.171	–	inactive: -0.009	inactive: -0.13	–	inactive: -0.329	inactive: 0.071	–	inactive: -0.075	–	inactive: -0.017	inactive: 0.187	–	inactive: 0.246	–	–
MARK2 (UniProt E9PC69)	inactive: -0.156	inactive: -0.047	inactive: 0.031	inactive: -0.047	inactive: -0.581	inactive: 0.049	inactive: 0.078	–	inactive: -0.018	inactive: 0.094	inactive: 0.06	inactive: 0.025	inactive: -0.034	–	inactive: 0.132	inactive: 0.034	active: -2.09	inactive: 0.034	inactive: -0.011	inactive: -0.005
LUC7L (UniProt Q9NQ29)	inactive: -0.098	inactive: 0.027	inactive: 0.009	inactive: 0.08	inactive: -0.007	inactive: 0.021	inactive: 0.101	–	inactive: 0.003	inactive: -0.022	inactive: -0.021	inactive: 0.054	inactive: -0.004	inactive: 0.027	inactive: -0.034	inactive: -0.01	inactive: -0.137	inactive: -0.056	inactive: 0.028	inactive: -0.007
MAPK6 (UniProt Q16659)	inactive: 0.097	inactive: 0.152	–	inactive: 0.076	inactive: 0.062	–	inactive: -0.001	inactive: -0.1	–	inactive: 0.011	inactive: 0.006	inactive: 0.037	inactive: 0.09	inactive: -0.009	inactive: -0.003	inactive: -0.061	inactive: -0.12	inactive: 0.006	inactive: -0.041	inactive: 0.022
MAP4K4 isoform 3 (UniProt O95819)	inactive: 0	inactive: 0.043	inactive: -0.039	inactive: -0.023	inactive: -0.027	inactive: 0.024	inactive: 0.046	–	inactive: 0.013	inactive: 0.022	inactive: 0.012	inactive: 0.033	inactive: 0.028	inactive: -0.02	inactive: 0.017	inactive: -0.012	active: -1.13	inactive: 0.073	inactive: -0.166	inactive: -0.007
LYRM1 (UniProt O43325)	inactive: 0.014	inactive: -0.027	inactive: -0.041	inactive: -0.01	inactive: -0.001	inactive: -0.03	inactive: 0.013	inactive: -0.033	inactive: 0.007	inactive: -0.068	inactive: -0.026	inactive: -0.071	inactive: -0.028	inactive: -0.043	inactive: 0	inactive: 0.063	–	inactive: -0.048	inactive: -0.046	inactive: -0.04
LSG1 (UniProt Q9H089)	inactive: -0.168	–	inactive: 0.067	inactive: 0.002	inactive: -0.472	inactive: 0.276	inactive: 0.386	–	inactive: 0.077	inactive: 0.188	inactive: -0.06	inactive: 0.37	inactive: 0.003	inactive: 0.093	inactive: 0.09	–	inactive: -0.118	inactive: -0.018	–	inactive: -0.027
LYST (UniProt Q99698)	–	inactive: -0.095	–	inactive: 0.096	–	–	–	inactive: 0.11	–	–	–	inactive: 0.004	–	inactive: 0.056	–	inactive: 0.064	–	–	–	inactive: -0.037
MAF1 (UniProt Q9H063)	–	–	inactive: -0.112	–	–	inactive: 0.203	–	–	inactive: -0.191	–	–	–	–	–	–	–	–	–	–	–
MAGED1 isoform 2 (UniProt Q9Y5V3)	–	–	–	inactive: -0.136	inactive: 0	–	–	–	–	inactive: 0.1	–	active: 0.608	inactive: 0.198	–	inactive: 0.006	–	inactive: 0.03	–	inactive: 0.003	inactive: -0.236
MAGEB10 (UniProt Q96LZ2)	–	–	–	–	–	–	–	inactive: -0.291	–	–	–	–	–	–	–	–	inactive: 0.172	inactive: -0.195	–	inactive: -0.134
LTBP1 isoform 4 (UniProt Q14766)	–	inactive: 0.044	inactive: -0.013	inactive: 0.093	inactive: 0.22	inactive: -0.041	–	inactive: 0.016	inactive: 0.026	inactive: 0.054	–	inactive: -0.185	inactive: 0.012	–	inactive: 0.036	inactive: 0.011	inactive: -0.007	inactive: 0.018	–	inactive: 0.045
